Data taken from paper PMC10510149.
Results are given in words; binding and its absence hold for the method and conditions named. Binding seen in cells or lysates may run through a third protein. Some results given as binding are weak or reduced against the parent protein; the word gives no strength.

The chains behind the UniProt entries cited, without tags or fusion partners.
UniProt P35222: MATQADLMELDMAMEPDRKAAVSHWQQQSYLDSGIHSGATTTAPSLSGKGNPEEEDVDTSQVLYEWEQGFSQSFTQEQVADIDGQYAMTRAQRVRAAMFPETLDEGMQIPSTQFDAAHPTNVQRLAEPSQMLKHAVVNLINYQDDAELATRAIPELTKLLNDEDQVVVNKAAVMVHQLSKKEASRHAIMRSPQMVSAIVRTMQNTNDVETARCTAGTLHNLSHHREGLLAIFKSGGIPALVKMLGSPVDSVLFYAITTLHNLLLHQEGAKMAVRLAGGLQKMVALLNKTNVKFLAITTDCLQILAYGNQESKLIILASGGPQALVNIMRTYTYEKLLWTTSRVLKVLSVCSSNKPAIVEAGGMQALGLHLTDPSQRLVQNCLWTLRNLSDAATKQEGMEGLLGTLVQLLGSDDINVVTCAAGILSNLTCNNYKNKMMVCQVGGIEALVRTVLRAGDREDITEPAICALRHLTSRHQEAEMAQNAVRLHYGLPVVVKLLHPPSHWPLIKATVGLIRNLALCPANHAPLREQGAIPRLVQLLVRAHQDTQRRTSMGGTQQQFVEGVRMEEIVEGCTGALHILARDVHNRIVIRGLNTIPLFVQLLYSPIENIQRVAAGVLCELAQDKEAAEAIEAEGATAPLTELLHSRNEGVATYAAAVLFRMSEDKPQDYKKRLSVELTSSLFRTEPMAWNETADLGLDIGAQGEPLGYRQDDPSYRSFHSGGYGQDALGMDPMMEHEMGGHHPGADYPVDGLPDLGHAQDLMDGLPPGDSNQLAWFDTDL
UniProt P45974: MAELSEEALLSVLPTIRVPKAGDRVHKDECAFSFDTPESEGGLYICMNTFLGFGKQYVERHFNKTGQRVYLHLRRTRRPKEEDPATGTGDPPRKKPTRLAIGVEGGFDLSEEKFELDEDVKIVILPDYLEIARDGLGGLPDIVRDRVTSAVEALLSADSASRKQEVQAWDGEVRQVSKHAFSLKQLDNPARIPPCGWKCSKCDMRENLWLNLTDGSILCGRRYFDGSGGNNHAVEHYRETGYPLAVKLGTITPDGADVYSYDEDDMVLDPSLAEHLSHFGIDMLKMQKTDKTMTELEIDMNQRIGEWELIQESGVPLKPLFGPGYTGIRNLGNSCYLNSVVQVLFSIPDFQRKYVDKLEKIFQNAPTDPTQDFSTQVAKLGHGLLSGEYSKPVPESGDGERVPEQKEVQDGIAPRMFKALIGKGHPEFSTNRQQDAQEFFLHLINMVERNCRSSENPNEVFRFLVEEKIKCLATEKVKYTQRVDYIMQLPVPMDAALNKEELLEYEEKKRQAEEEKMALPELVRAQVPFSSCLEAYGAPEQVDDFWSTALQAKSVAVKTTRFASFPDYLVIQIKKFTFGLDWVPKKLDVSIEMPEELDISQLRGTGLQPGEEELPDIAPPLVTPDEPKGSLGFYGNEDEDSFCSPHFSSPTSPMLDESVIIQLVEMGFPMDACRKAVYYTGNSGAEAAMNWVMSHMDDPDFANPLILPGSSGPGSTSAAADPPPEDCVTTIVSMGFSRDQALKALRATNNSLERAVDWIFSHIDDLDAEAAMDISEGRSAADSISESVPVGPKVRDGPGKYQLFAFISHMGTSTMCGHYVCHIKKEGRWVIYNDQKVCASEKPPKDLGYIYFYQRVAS

Tests used:
[1] = target: β-catenin (human (endogenous in CL1-5)) (UniProt P35222); assay: co-IP; endogenous proteins in CL1-5 cell extract; IP buffer (0.5% Triton X-100, 137 mM NaCl, 19 mM Tris-HCl, 2.68 mM KCl, 30 mM Na-pyrophosphate, pH 7.4); 1 mg extract with 1 µg antibody or mouse IgG overnight at 4 °C, protein G magnetic beads; both orientations (anti-USP5 IP and anti-β-catenin IP), western blot
[2] = target: ubiquitin-specific peptidase 5 (human (endogenous in CL1-5)) (UniProt P45974); assay: as above

Row | binding [1] | binding [2] | Substance
1 | binds | – | ubiquitin-specific peptidase 5 (from UniProt P45974 1-858) (enzyme)
2 | – | binds | β-catenin (from UniProt P35222 1-781)
